# Assay results taken from PubChem BioAssay AID2685 (National Center for Advancing Translational Sciences (NCATS), 2010).
# The list shows a part of the results. Further columns of the screen follow, without active or inactive calls. The list favours compounds with an active or inconclusive main result. Potencies come from curve fits of mixed quality, noted in brackets.
# Experiment: qHTS Assay for Lipid Storage Modulators in Drosophila S3 Cells;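 on cell number change: cells counted by Cell Tracker Red CMTPX staining in the red channel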
# Settings: BODIPY lipid droplet fluorescence, 18-24 h; for cell number change: measured here: cell count max response, cells fed with added oleic acid
# Procedure, shortened: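 Laser-scanning cytometry quantifies lipid droplet accumulation (500–530 nm total intensity; droplet/cell object ratio) in oleic acid-fed (400 uM added) Drosophila S3 cells treated with a concentration series. 20 uM Triacsin C defined 100% inhibition.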
# [1] = measured here: lipid fluorescence (Fed channel) AC50, cells fed with added oleic acid
# [2] = measured here: cell number channel AC50, cells fed with added oleic acid
smiles,measurement,setting,value
O=c1[nH]cc(N=Cc2cc([N+](=O)[O-])ccc2O)c(=O)[nH]1,cell number change,,5.22%
same,AC50,[1],"25.9 µM [rising, single point]"
CC1CN(CCOCCSc2ccccc2)CC(C)O1 (stereo not drawn),cell number change,,-8.31%
same,AC50,[1],"0.103 µM [rising, full curve, poor fit]"
COc1ccc(N(C(C)C(=O)N2CCC(Cc3ccccc3)CC2)S(C)(=O)=O)cc1 (stereo not drawn),cell number change,,-24.3%
same,AC50,[2],"4.11 µM [falling, full curve, poor fit]"
same,AC50,[1],"4.61 µM [falling, full curve, poor fit]"
CCCCc1cc(=O)oc2cc(C)cc(OCC(=O)NCc3cccnc3)c12,cell number change,,-8.02%
same,AC50,[1],"29.1 µM [falling, single point]"
O=C(Nc1ccc(Br)c(C(F)(F)F)c1)c1ccc(C(F)(F)F)cc1,cell number change,,-46.6%
CC(C)(C)c1ccc(C(=O)Nc2cccc(-n3cnnn3)c2)cc1,cell number change,,-21.2%
same,AC50,[1],"29.1 µM [falling, single point]"
CC1CCN(C(c2ccc(N(C)C)cc2)c2nnnn2Cc2ccc(F)cc2)CC1 (stereo not drawn),cell number change,,2.52%
same,AC50,[1],"0.103 µM [rising, full curve, poor fit]"
CCN1C(=NCc2ccco2)N[C@@H](c2cccc(C(F)(F)F)c2)C(C(=O)OC)=C1C,cell number change,,9.59%
COc1cccc(N2CCN(CC(=O)c3c(C)[nH]c4ccccc34)CC2)c1,AC50,[2],"1.3 µM [rising, full curve]"
same,AC50,[1],"2.06 µM [rising, partial curve]"
O=C(COc1ccccc1)Nc1cccc(-c2nc3cc4ccccc4cc3[nH]2)c1,cell number change,,13.2%
same,AC50,[2],"6.51 µM [rising, single point]"
same,AC50,[1],"6.51 µM [rising, single point]"
COCc1[nH]c(=S)[nH]c(=O)c1C,cell number change,,-55.1%
same,AC50,[2],"29.1 µM [falling, single point]"
same,AC50,[1],"29.1 µM [falling, single point]"
COc1ccccc1N(CC(=O)N(c1ccccc1)C(C)C)S(=O)(=O)c1cccs1,cell number change,,61.3%
Cc1ccc(N=C2C(=O)Nc3ccccc32)cc1,cell number change,,37.5%
same,AC50,[2],"0.58 µM [rising, full curve, poor fit]"
N/C(CN1CCCC1=O)=N\OC(=O)c1ccccc1Cl,AC50,[1],"5.8 µM [falling, full curve]"
NS(=O)(=O)c1cccc(NC(=O)CCS(=O)(=O)c2ccc(Cl)cc2)c1,cell number change,,10.5%
same,AC50,[1],"0.411 µM [falling, partial curve, poor fit]"
CC(C)CN(C(=O)CN1C(=O)NC(c2ccccc2)(c2ccccc2)C1=O)C1CCS(=O)(=O)C1 (stereo not drawn),cell number change,,-23.8%
same,AC50,[1],"14.6 µM [falling, single point]"
CCOc1ccc(-c2nc(C#N)c(NCC(C)C)o2)cc1,cell number change,,-18.4%
CCOC(=O)c1sc(NC(=O)CN2CC(C)OC(C)C2)nc1C (stereo not drawn),cell number change,,-4.23%
CC1CCc2sc(C(=O)NCC(C)(C)N3CCOCC3)cc2C1 (stereo not drawn),cell number change,,22.5%
N#CCCN(C(=O)COC(=O)C1=COCCO1)c1ccc(F)cc1,cell number change,,-22.8%
same,AC50,[1],"0.146 µM [falling, full curve]"
CN(C)CCCNc1oc(-c2ccccc2)nc1C#N,AC50,[1],"0.731 µM [rising, single point]"
COc1ccc(OC)c(NC(=O)CSc2nc(=O)n(Cc3ccccn3)c3c2CCC3)c1,cell number change,,13.3%
same,AC50,[2],"2.31 µM [rising, partial curve]"
same,AC50,[1],"0.82 µM [rising, full curve]"
CN(C)c1ccc(-c2ccccc2)nn1,cell number change,,94.3%
same,AC50,[2],"6.51 µM [falling, single point]"
same,AC50,[1],"6.51 µM [rising, single point]"
O=C(CSc1nc2[nH]c(=O)cc(O)c2s1)Nc1cc(Cl)cc(Cl)c1,cell number change,,10.4%
same,AC50,[1],"6.51 µM [rising, single point]"
O=C(CCn1c(=S)oc2ccccc21)NC1CCCCC1,cell number change,,14.1%
same,AC50,[1],"0.259 µM [falling, full curve, poor fit]"
CCOc1cccc(NC(=O)C2CC(=O)N(C)C(=Nc3ccccc3)S2)c1 (stereo not drawn),cell number change,,-15%
same,AC50,[1],"6.51 µM [rising, partial curve]"
CC(C)CCN1CN(S(=O)(=O)c2cccs2)c2nc3ccccc3nc21,cell number change,,10.1%
same,AC50,[1],"4.61 µM [rising, partial curve]"
CCC(Oc1ccccc1)C(=O)N1CCN(S(=O)(=O)c2ccccc2)CC1 (stereo not drawn),cell number change,,9.21%
same,AC50,[1],"1.64 µM [rising, full curve]"
Cc1ccc(S(=O)(=O)C2(C(=O)NC3CCCCC3)CC2)cc1,cell number change,,-11.4%
CCCn1c(CN2CCN(C(=O)OCC)CC2)nc2cc([N+](=O)[O-])ccc21,cell number change,,-6.38%
same,AC50,[2],"0.00517 µM [falling, full curve]"
CC1CCCC(NC(=O)CCNC(=O)c2ccccc2Cl)C1C (stereo not drawn),cell number change,,3%
Cc1ccc(N(C)C(=O)CCNC(=O)Cn2cnc3ccccc3c2=O)cc1C,cell number change,,12.8%
same,AC50,[1],"3.26 µM [falling, full curve, poor fit]"
O=C(NC(=O)c1csnn1)Nc1ccccc1Cl,cell number change,,-6.15%
CCCCN1C(Nc2ccccc2)=NC[C@@H]1Cc1ccccc1,cell number change,,0.328%
same,AC50,[1],"29.1 µM [falling, single point]"
O=C(Cn1c(=O)c2cccn2c2ccccc21)NCc1cccc(F)c1,cell number change,,-16.1%
same,AC50,[1],"6.51 µM [rising, single point]"
O=C(NC1CC1)c1cccc(NC(=O)c2cn3ccccc3n2)c1,cell number change,,-8.08%
same,AC50,[1],"4.61 µM [falling, single point]"
COc1ccc(C)cc1S(=O)(=O)Nc1ccc(-n2c(C)nc3ccccc3c2=O)cc1,cell number change,,-6.3%
CC(C)CN(C(=O)CCc1ccccc1)c1c(N)n(CC(C)C)c(=O)[nH]c1=O,cell number change,,13.2%
same,AC50,[1],"14.6 µM [rising, single point]"
Cc1ccc(N(CC(=O)NCC2CCCO2)S(=O)(=O)c2ccccc2)c(C)c1 (stereo not drawn),cell number change,,-7.62%
same,AC50,[1],"29.1 µM [falling, single point]"
CN(Cc1cccc(Cl)c1Cl)C(=O)c1cccc(S(=O)(=O)N2CCN(Cc3ccccc3)CC2)c1,cell number change,,-49.7%
same,AC50,[2],"20.6 µM [falling, partial curve]"
same,AC50,[1],"0.00461 µM [falling, full curve, poor fit]"
O=C(COc1cccnc1[N+](=O)[O-])NC1CCS(=O)(=O)C1 (stereo not drawn),cell number change,,-52.8%
same,AC50,[2],"29.1 µM [falling, single point]"
COc1cc(CC(=O)Nc2nc(C)cs2)cc(OC)c1OC,cell number change,,0.415%
same,AC50,[1],"0.103 µM [rising, full curve]"
COC(=O)c1[nH]c2cc(OC)ccc2c1NC(=O)CCN1CCCCC1,cell number change,,0.671%
same,AC50,[2],"1.3 µM [falling, full curve]"
O=C(Nc1nnc(SCCC2OCCO2)s1)C1CC(=O)N(c2ccc(F)cc2)C1 (stereo not drawn),cell number change,,-17.3%
Cc1ccccc1NC(=O)Cc1nc(CSc2nnc(-c3ccc4c(c3)OCO4)o2)cs1,cell number change,,6.88%
same,AC50,[1],"1.46 µM [rising, full curve]"
CCOc1ccc2nc(NC(=O)C3=NNC(=O)CC3)sc2c1,cell number change,,35.2%
same,AC50,[2],"6.51 µM [rising, single point]"
same,AC50,[1],"5.8 µM [rising, full curve]"
Fc1cccc(/C=N/N=C/c2cccc(F)c2)c1,AC50,[1],"0.58 µM [rising, single point]"
CC1Nc2ncnc(N3CCN(c4ccccc4)CC3)c2N(Cc2ccc(Br)cc2)C1=O (stereo not drawn),cell number change,,-37.6%
same,AC50,[2],"29.1 µM [falling, single point]"
same,AC50,[1],"0.13 µM [falling, full curve, poor fit]"
Cc1cc(NC(=O)C2CC(=O)N(c3ccccc3C)C2)no1 (stereo not drawn),cell number change,,11.5%
Cc1cc(C(=O)N/N=C/c2cccc3ccccc23)c(C)o1,cell number change,,13.3%
same,AC50,[1],"1.16 µM [falling, single point]"
CCOC(=O)N1CCN(S(=O)(=O)CCNC(=O)c2ccc(F)cc2)CC1,cell number change,,-16.9%
same,AC50,[1],"0.58 µM [falling, full curve]"
Cc1sc(N(C(=O)CCc2ccccc2)c2ccc(C(=O)O)cc2)nc1-c1ccccc1,cell number change,,-0.237%
same,AC50,[1],"0.731 µM [rising, single point]"
CC1Cc2cc(/C(O)=C3/C(=O)C(=O)N(CCCn4ccnc4)C3c3cccc([N+](=O)[O-])c3)ccc2O1 (stereo not drawn),cell number change,,-8.02%
CC(=O)/C(=C/c1ccc(N(C)C)cc1)C(=O)c1ccccc1,cell number change,,-26.9%
same,AC50,[2],"0.411 µM [falling, full curve, poor fit]"
same,AC50,[1],"0.58 µM [falling, full curve, poor fit]"
Nc1ccn(CC(=O)NCCCc2ccccc2)c(=O)n1,cell number change,,-7.23%
same,AC50,[1],"0.291 µM [rising, partial curve]"
CC(C)(C)NC(=O)CCC1COc2ccccc2O1 (stereo not drawn),cell number change,,-13.4%
same,AC50,[2],"0.00517 µM [falling, full curve, poor fit]"
COc1ccc(/C(C)=N/NC(=O)c2ccccc2N)cc1,cell number change,,42%
COc1ccc(CC(=O)Nc2ccc(S(=O)(=O)N3CCCCC3)cc2)cc1OC,cell number change,,-35.2%
same,AC50,[2],"18.4 µM [falling, partial curve, poor fit]"
same,AC50,[1],"0.58 µM [rising, single point]"
O=C(COc1ccccc1Cl)c1ccc[nH]1,cell number change,,13%
same,AC50,[1],"0.0651 µM [rising, full curve, poor fit]"
C/C(=N\NC(=O)c1ccco1)c1ccc(NC(=O)C(F)(F)F)cc1,cell number change,,-8.01%
same,AC50,[1],"6.51 µM [falling, single point]"
CC(C)(C)OC(=O)N1CCC(Cc2cc(-c3ccc(Cl)cc3)no2)(C(=O)O)CC1,cell number change,,12.9%
same,AC50,[1],"20.6 µM [rising, single point]"
COc1ccccc1CNC(=O)C(C)Oc1ccccc1 (stereo not drawn),cell number change,,-28.8%
same,AC50,[1],"16.4 µM [falling, single point]"
CCCn1c(=O)c(C(=O)Nc2cc(C)ccn2)c(O)c2ccccc21,cell number change,,15.3%

# Given with bars between the fields: part of the list above.
smiles | measurement | setting | value
Cc1ccc(N(C)C(=O)CCNC(=O)Cn2cnc3ccccc3c2=O)cc1C | cell number change |  | 12.8%
same | AC50 | [1] | 3.26 µM [falling, full curve, poor fit]
O=C(NC(=O)c1csnn1)Nc1ccccc1Cl | cell number change |  | -6.15%

# An excerpt of these results, tab-delimited.
smiles	measurement	setting	value
Cc1ccc(S(=O)(=O)C2(C(=O)NC3CCCCC3)CC2)cc1	cell number change		-11.4%
CC(C)CN(C(=O)CCc1ccccc1)c1c(N)n(CC(C)C)c(=O)[nH]c1=O	AC50	[1]	14.6 µM [rising, single point]
Cc1ccc(N(CC(=O)NCC2CCCO2)S(=O)(=O)c2ccccc2)c(C)c1 (stereo not drawn)	cell number change		-7.62%

# Another view of part of the listing above.
smiles	measurement	setting	value
CC(C)(C)OC(=O)N1CCC(Cc2cc(-c3ccc(Cl)cc3)no2)(C(=O)O)CC1	cell number change		12.9%
same	AC50	[1]	20.6 µM [rising, single point]
